What was measured:
MRSA = assay: Petri dish zone of inhibition test; assay type: cell-based, Methicillin Resistant Staph Aureus; conditions: FIG. 17, identical size drops (diameters of ZOA)
E. coli = assay: Petri dish zone of inhibition test; assay type: cell-based; conditions: FIG. 19, identical size drops
Klebsiella pneumoniae = assay: Petri dish zone of inhibition test; assay type: cell-based; conditions: FIG. 18, identical size drops
Proteus vulgaris = assay: Petri dish zone of inhibition test; assay type: cell-based; conditions: FIG. 20, identical size drops
Acinetobacter lwoffi = assay: Petri dish zone of inhibition test; assay type: cell-based; conditions: FIG. 23, identical size drops
Acinetobacter baumannii = assay: Petri dish zone of inhibition test; assay type: cell-based; conditions: Acinetobacter baumanii, FIG. 24; identical size drops
Pseudomonas aeruginosa = assay: Petri dish zone of inhibition test; assay type: cell-based; conditions: FIG. 21, identical size drops
Staph aureus = assay: Petri dish zone of inhibition comparison with control agents; assay type: cell-based, Staphylococcus aureus; conditions: FIG. 16, identical size drops (diameters of ZOA)

**Q.** `O=C(O)c1cn(C2CC2)c2cc(N3CCNCC3)c(F)cc2c1=O` [Ciprofloxacin] was tested. Which “zones of inhibition of control agents compared with the formulations of the invention” value (MRSA) did it give?
**A.** The value was “considerably reduced zones of inhibition”.

**Q.** What about the “zones of inhibition of control agents compared with the formulations of the invention” value (E. coli) of the same compound?
**A.** Its value is “considerably reduced zones of inhibition”.

**Q.** And the “zones of inhibition of control agents compared with the formulations of the invention” value (Klebsiella pneumoniae)?
**A.** The value was “considerably reduced zones of inhibition”.

**Q.** And the “zones of inhibition of control agents compared with the formulations of the invention” value (Proteus vulgaris)?
**A.** Its value is “considerably reduced zones of inhibition”.

**Q.** What about the “zones of inhibition of control agents compared with the formulations of the invention” value (Acinetobacter lwoffi) of the same compound?
**A.** The value was “considerably reduced zones of inhibition”.

**Q.** What about the “zones of inhibition of control agents compared with the formulations of the invention” value (Acinetobacter baumannii) of the same compound?
**A.** Its value is “considerably reduced zones of inhibition”.

**Q.** What about the “zones of inhibition of control agents compared with the formulations of the invention” value (Pseudomonas aeruginosa) of the same compound?
**A.** Its value is “considerably reduced zones of inhibition”.

**Q.** And the “zones of inhibition of control agents compared with the formulations of the invention” value (Staph aureus)?
**A.** Its value is “considerably reduced zones of inhibition”.

From patent publication US20120070390A1, “Topical drug delivery system with dual carriers” (priority 2010, published 2012)
